# Laboratory results: US20030049661A1 (JCR PHARMACEUTICALS, published 2003)
# The chains behind the UniProt entries cited, without tags or fusion partners.
# UniProt Q9EQZ6: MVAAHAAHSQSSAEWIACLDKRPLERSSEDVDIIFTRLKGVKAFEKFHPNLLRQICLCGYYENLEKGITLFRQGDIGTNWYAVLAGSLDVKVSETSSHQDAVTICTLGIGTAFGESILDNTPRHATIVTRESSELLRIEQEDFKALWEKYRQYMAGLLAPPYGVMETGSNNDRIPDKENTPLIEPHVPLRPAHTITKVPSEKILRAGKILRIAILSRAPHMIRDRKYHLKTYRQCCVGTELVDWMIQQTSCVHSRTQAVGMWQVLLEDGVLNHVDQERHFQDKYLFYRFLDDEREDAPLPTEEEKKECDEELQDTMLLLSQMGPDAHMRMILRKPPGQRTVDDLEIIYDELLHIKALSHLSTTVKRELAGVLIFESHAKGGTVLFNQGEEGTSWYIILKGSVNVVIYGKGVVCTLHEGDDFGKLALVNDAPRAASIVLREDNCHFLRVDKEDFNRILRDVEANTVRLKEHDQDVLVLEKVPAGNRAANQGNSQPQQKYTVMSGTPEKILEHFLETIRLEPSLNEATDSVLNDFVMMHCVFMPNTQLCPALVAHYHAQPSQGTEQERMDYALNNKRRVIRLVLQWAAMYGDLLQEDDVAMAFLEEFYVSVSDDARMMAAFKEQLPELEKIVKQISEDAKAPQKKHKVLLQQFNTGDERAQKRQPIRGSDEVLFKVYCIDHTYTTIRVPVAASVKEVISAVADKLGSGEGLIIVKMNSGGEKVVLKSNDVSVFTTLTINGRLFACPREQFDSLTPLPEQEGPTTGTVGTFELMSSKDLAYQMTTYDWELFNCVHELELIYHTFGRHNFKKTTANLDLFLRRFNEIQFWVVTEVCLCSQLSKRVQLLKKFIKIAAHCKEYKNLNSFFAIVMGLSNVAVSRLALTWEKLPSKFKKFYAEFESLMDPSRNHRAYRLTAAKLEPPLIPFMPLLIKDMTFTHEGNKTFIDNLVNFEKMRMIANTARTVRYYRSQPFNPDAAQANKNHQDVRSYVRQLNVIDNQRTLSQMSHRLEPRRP
# Results are given in words; binding and its absence hold for the method and conditions named. Binding seen in cells or lysates may run through a third protein. Some results given as binding are weak or reduced against the parent protein; the word gives no strength. Where a sequence is shown, tags or fusion partners need not be part of it.
# B1: GST-Rim1 (Rim1 partial sequence 530-806) (protein, UniProt Q9JIR4 530-806, looked up, not shown: a dimerising Fc or GST)
# chain: PHRPKRGGKRRQMSVSSSEEEGVSTPEYTSCEDVELESESVSEKGDLDYYWLDPATWHSRETSPISSHPVTWQPSKEGDRLIGRVILNKRTTMPKESGALLGLKVVGGKMTDLGRLGAFITKVKKGSLADVVGHLRAGDEVLEWNGKPLPGATNEEVYNIILESKSEPQVEIIVSRPIGDIPRIPESSHPPLESSSSSFESQKMERPSISVISPTSPGALKDAPQVLPGQLSVKLWYDKVGHQLIVNVLQATDLPPRVDGRPRNPYVKMYFLPDRSD
# Target: cAMP-GEFII (endogenous, in MIN6 cell lysate or mouse brain homogenate) (mouse) (UniProt Q9EQZ6)
# Assay: GST pull-down from mouse brain homogenate on glutathione beads, anti-cAMP-GEFII immunoblot
binder,measurement,value
B1,binding,binds
